According to US20240327460A1, “NORA INHIBITORS AND METHODS OF USE” (priority 2021, published 2024):
Results are given in words; binding and its absence hold for the method and conditions named. Some binding calls cover weakened binding; strength is not graded here. Tags and fused reporters may be left off the sequences shown.

Molecular target: T1, NorA with a C-terminal myc-tag, expressed in E. coli from pTrcHis2C (Staphylococcus aureus) (UniProt Q5HHX4)
T1 sequence: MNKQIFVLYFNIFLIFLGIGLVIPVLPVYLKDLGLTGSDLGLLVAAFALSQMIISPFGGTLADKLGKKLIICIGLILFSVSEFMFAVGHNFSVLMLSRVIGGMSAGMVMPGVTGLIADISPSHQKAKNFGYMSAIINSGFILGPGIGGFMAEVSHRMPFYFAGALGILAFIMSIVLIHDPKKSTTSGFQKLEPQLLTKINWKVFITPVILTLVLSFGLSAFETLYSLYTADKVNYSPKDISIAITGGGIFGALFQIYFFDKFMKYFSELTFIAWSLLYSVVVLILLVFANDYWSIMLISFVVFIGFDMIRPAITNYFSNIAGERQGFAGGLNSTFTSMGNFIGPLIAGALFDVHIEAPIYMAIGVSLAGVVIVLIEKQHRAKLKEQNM
Assay: pull-down of NorA from the membrane fraction of co-expressing E. coli, immunoblot

B1: Fab36 co-expressed in E. coli from pBAD33, C-terminal Avi-tag on the heavy chain (Fab, V domains shown)
VH: EVQLVESGGGLVQPGGSLRLSCAASGFTFSSSSIHWVRQAPGKGLEWVASISSSSGSTSYADSVKGRFTISADTSKNTAYLQMNSLRAEDTAVYYCARYSRYYYYAWRVGGYWGGLDYWGQGTLVTVSS
VL: DIQMTQSPSSLSASVGDRVTITCRASQSVSSAVAWYQQKPGKAPKLLIYSASSLYSGVPSRFSGSRSGTDFTLTISSLQPEDFATYYCQQSSSSLITFGQGTKVEIKR
For B1, the binding was “binds”.
